Some of the results follow.

Chains of the proteins cited; added tags and fusions are not shown. Lines headed by an entry give the natural chain unless they say otherwise; changes in a name come on top.
UniProt Q9NT62, whole entry, looked up: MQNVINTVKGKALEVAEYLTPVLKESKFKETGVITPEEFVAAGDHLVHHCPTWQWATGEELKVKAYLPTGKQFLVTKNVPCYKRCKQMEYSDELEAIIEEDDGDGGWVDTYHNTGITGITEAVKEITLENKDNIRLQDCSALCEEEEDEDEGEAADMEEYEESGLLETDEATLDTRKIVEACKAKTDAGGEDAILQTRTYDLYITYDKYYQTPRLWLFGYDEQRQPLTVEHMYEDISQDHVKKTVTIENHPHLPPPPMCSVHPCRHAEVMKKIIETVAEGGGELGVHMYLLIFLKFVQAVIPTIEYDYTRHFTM
UniProt P38606, whole entry, looked up: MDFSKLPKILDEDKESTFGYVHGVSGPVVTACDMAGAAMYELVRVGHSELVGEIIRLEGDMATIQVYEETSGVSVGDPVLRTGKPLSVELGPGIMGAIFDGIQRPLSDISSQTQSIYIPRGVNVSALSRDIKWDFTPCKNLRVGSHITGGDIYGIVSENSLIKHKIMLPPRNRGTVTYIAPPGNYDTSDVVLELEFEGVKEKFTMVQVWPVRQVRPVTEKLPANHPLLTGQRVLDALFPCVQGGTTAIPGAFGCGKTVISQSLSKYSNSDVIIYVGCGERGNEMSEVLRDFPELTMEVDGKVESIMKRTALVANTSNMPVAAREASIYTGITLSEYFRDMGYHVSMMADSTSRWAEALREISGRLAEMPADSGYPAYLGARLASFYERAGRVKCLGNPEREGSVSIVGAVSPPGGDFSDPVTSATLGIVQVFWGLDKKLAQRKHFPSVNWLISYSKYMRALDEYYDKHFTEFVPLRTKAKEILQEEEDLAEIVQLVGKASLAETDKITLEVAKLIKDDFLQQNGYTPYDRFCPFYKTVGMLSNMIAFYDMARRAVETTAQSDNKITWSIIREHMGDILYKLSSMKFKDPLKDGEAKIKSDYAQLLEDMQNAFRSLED
UniProt Q9Y2G3: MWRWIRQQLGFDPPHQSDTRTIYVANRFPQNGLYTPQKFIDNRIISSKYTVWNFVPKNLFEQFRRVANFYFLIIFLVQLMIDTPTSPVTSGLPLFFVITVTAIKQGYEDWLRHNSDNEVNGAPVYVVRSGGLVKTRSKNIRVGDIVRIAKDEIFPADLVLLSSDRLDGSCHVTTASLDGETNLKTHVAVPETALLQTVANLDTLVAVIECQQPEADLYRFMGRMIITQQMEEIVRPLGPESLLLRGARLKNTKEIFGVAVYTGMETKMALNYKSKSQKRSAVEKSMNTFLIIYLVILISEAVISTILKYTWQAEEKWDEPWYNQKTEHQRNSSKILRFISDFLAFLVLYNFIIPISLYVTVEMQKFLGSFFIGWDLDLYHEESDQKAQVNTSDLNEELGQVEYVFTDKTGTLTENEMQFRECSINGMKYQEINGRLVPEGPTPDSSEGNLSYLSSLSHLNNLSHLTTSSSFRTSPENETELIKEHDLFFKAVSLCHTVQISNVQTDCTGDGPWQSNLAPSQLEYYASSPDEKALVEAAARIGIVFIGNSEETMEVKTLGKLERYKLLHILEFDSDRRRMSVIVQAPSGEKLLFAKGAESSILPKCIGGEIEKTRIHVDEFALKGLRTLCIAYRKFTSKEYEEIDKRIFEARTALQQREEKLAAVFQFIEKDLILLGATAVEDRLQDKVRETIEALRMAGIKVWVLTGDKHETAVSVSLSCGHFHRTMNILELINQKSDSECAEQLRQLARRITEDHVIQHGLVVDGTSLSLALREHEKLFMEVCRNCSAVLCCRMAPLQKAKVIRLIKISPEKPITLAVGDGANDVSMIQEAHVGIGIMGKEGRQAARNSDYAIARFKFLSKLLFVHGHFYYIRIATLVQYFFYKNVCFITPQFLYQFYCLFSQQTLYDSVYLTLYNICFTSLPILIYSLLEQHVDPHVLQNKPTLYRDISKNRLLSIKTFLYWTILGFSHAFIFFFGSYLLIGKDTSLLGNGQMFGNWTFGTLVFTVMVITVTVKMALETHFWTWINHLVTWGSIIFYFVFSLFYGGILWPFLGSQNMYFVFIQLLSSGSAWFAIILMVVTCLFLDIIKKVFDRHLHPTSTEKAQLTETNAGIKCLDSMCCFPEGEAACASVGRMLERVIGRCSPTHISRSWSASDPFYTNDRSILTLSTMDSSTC
UniProt Q92747, whole entry, looked up: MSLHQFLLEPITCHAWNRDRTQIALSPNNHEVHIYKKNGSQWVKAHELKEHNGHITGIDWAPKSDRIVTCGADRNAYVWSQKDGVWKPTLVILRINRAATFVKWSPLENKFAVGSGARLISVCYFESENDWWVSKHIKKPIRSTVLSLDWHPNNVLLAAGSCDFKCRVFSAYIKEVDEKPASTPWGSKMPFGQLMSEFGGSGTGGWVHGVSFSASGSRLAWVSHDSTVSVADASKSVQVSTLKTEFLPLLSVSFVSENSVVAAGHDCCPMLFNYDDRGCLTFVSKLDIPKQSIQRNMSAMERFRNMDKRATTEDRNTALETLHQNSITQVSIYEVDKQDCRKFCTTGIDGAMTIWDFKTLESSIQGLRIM
UniProt P56381: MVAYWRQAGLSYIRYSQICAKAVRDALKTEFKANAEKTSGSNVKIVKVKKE
UniProt P98194: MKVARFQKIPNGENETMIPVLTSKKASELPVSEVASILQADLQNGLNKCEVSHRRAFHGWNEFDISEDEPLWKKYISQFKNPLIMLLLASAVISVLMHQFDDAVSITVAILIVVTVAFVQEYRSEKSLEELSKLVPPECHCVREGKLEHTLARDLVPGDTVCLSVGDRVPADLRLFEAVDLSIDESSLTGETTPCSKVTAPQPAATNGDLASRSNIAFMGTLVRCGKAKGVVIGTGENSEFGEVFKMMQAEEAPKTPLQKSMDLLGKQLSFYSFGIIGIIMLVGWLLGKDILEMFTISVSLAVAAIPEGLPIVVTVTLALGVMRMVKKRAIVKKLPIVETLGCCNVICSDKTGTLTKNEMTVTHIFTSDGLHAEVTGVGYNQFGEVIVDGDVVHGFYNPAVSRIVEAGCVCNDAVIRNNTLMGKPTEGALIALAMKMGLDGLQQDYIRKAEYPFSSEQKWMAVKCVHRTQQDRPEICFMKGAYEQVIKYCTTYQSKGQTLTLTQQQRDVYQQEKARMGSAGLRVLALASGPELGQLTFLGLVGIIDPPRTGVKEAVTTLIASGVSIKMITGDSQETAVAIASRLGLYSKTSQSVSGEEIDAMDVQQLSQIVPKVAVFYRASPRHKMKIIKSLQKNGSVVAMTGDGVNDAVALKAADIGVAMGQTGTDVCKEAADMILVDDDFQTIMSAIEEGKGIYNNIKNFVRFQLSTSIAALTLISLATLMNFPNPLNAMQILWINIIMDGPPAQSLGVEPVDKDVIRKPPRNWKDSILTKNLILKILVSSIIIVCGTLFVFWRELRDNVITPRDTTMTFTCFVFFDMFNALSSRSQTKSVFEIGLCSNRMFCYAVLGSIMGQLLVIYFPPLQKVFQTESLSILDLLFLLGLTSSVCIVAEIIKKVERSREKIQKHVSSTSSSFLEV
UniProt P61421, whole entry, looked up: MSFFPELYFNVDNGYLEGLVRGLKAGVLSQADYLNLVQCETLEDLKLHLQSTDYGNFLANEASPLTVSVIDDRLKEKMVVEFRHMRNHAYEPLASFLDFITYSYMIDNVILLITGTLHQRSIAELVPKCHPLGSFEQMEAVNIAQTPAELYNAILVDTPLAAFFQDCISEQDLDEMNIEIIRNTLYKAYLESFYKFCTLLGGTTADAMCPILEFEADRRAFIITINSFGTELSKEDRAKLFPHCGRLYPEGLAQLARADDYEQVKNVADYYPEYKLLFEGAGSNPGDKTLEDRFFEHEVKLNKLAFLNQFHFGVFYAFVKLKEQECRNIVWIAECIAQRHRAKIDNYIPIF
UniProt Q8N3C0, whole entry, looked up: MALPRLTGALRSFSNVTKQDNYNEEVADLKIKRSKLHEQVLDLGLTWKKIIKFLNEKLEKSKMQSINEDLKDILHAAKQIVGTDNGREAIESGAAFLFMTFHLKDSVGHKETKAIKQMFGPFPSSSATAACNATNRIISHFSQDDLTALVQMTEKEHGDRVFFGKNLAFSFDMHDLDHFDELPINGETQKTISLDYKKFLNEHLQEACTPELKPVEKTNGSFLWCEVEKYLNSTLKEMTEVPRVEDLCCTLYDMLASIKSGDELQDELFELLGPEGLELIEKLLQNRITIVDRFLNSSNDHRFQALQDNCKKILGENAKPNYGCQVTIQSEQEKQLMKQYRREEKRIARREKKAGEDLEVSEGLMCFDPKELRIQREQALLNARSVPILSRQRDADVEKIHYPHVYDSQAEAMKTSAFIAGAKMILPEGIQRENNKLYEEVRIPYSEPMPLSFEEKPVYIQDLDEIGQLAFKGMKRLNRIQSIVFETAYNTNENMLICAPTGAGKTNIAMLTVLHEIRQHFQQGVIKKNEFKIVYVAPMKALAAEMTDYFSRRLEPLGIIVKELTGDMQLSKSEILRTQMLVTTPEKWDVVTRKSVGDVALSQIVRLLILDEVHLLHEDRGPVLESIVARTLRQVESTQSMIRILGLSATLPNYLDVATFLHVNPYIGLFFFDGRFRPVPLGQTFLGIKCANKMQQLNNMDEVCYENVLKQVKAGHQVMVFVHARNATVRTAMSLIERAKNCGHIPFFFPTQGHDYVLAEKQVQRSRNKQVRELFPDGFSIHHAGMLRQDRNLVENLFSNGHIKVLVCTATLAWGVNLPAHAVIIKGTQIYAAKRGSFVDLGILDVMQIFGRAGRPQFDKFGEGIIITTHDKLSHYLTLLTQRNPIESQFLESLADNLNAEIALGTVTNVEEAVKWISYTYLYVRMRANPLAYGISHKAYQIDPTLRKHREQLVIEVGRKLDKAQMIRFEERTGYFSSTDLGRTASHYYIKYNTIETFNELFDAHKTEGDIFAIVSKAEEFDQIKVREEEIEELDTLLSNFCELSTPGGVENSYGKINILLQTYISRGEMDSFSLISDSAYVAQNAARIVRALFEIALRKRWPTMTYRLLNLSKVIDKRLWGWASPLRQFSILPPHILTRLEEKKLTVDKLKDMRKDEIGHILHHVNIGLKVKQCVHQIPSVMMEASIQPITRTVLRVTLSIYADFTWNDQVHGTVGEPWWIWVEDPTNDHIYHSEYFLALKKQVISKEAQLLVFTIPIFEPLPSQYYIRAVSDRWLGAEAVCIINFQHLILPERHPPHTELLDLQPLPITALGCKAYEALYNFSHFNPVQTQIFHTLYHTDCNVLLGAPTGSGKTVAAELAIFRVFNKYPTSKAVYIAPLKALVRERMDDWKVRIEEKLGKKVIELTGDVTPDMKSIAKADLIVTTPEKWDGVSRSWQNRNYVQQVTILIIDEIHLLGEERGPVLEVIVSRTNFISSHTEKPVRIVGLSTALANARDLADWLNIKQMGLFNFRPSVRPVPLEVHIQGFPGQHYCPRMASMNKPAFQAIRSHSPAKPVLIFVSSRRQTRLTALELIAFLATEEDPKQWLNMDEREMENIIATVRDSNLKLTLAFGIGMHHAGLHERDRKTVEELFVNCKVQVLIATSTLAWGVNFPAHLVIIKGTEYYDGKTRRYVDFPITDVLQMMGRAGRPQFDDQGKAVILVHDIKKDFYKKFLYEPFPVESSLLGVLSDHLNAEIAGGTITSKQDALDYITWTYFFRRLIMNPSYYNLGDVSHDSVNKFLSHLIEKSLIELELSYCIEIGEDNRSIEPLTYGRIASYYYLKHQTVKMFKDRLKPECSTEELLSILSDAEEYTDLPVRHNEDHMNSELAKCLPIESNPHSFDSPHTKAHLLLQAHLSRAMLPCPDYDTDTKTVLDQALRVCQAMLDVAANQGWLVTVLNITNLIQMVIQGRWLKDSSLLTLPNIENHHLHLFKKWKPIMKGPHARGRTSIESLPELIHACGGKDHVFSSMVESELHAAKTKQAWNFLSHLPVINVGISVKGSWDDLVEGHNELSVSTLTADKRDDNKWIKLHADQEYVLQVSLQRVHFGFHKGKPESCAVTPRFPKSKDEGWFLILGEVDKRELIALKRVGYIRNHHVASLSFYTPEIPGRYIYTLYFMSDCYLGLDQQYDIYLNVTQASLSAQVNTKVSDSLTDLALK
UniProt P15848: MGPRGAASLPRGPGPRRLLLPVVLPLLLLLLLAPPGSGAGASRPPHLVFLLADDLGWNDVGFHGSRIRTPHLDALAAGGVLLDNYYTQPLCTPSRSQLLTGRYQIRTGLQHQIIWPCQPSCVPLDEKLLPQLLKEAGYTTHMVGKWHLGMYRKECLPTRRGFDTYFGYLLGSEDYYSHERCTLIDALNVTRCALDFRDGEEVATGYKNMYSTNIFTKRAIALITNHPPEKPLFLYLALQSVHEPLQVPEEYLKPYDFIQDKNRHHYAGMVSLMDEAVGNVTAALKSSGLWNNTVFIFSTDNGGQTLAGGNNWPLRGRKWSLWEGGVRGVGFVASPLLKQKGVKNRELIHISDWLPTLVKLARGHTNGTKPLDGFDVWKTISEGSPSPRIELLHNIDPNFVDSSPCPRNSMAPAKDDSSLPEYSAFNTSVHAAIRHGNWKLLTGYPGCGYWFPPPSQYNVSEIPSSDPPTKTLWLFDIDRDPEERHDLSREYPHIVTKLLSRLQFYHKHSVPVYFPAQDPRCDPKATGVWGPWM

Compound in this assay: CCCS(=O)(=O)Nc1ccc(F)c(C(=O)c2c[nH]c3ncc(Cl)cc23)c1F
Kind of assay: log2 fold change, soluble protein after heating vs DMSO (PISA); higher = thermal stabilisation; K562 cells, 10 uM, 30 min; active = over 0.2 and 3.5 SD of the protein, either way, in both replicates (recomputed). In a few lines: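 Thermal stability values are relative to control samples and come from duplicates. They are expressed as log2 fold changes. For measurement, K562 cells (2×10^6 cells/mL) received 10 μM compound for 30 min, and aliquots were heated for 3 min over 48°C-58°C, pooled, and extracted at 4°C in PBS with 0.5% NP-40. Soluble protein, the supernatant after 21,000xg for 90 min, was quantified by TMTpro 16plex LC-MS/MS with equalised channel sums.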
For ATP7A isoform 3 (UniProt Q04656), the log2 fold change is inactive: 0.026.
For ARPC1B (UniProt O15143), the log2 fold change is inactive: 0.193.
Take ASAP1 isoform 2 (UniProt Q9ULH1): the log2 fold change is inactive: 0.016.
Regarding ATG3 (UniProt Q9NT62), the log2 fold change was inactive: -0.012.
For ARL6IP1 (UniProt Q15041), the log2 fold change is inactive: -0.038.
For the target ATG2A isoform 3 (UniProt Q2TAZ0), the log2 fold change is inactive: 0.034.
ARRB2 isoform 4 (UniProt P32121): the log2 fold change is inactive: 0.03.
For the target ATP5MF (UniProt P56134), the log2 fold change is inactive: -0.023.
With ASPM (UniProt Q8IZT6), the log2 fold change is inactive: 0.
With ATP6V1A (UniProt P38606), the log2 fold change was inactive: 0.01.
Take ATP11B (UniProt Q9Y2G3): the log2 fold change was inactive: 0.016.
Consider ASL (UniProt P04424), for which the log2 fold change is inactive: -0.009.
The result for ATP6AP2 (UniProt O75787) reads inactive: 0.003.
On to ASAH1 isoform 2 (UniProt Q13510), for which the log2 fold change is inactive: 0.017.
Consider ATP5F1A (UniProt P25705), for which the log2 fold change was inactive: -0.043.
In the case of ARIH2 (UniProt O95376), the log2 fold change was inactive: 0.032.
The result for ARPC3 (UniProt O15145) reads inactive: -0.002; that for ATPAF2 (UniProt Q8N5M1), inactive: 0; that for ATG2B (UniProt Q96BY7), inactive: 0.148.
In the case of ARPC1A (UniProt Q92747) it was inactive: 0.034; in that of ATP5F1E (UniProt P56381), inactive: -0.016.
The result for ATE1 isoform 2 (UniProt O95260) reads inactive: 0.108; that for ASPH (UniProt Q12797), inactive: -0.051.
ATP2C1 isoform 7 (UniProt P98194): the log2 fold change is inactive: 0.
On to ATL3 (UniProt Q6DD88), for which the log2 fold change is inactive: 0.079.
Consider ARPC5 (UniProt O15511), for which the log2 fold change is inactive: -0.014.
As for ARPC2 (UniProt O15144), the log2 fold change is inactive: 0.004.
Consider ATP5MC2 isoform 2 (UniProt Q06055), for which the log2 fold change is inactive: 0.
As for ARMC1 (UniProt Q9NVT9), the log2 fold change was inactive: 0.063.
As to ATF2 (UniProt P15336), the log2 fold change was inactive: 0.002.
The result for ATP6V0D1 (UniProt P61421) reads inactive: -0.033; that for ASCC3 (UniProt Q8N3C0), inactive: 0.005.
For the target ARPC4 isoform 3 (UniProt P59998), the log2 fold change is inactive: 0.001.
The result for ARV1 (UniProt Q9H2C2) reads inactive: 0.048; that for ARSB (UniProt P15848), inactive: -0.113.
In the case of ASF1A (UniProt Q9Y294) it was inactive: -0.016.
ATP11C (UniProt Q8NB49): the log2 fold change was inactive: -0.028.
Turning to ATP2B4 (UniProt P23634), the log2 fold change was inactive: -0.032.

Source of the values: the supplement of paper PMC10849652.
